Experiment: Redox activation of OVA^qRAS by GSH or DTT (fluorescence spectra)
Details: GSH 5 mM, 1 hr, PBS

B1: OVA^qRAS: Ovalbumin labeled by qRAS (conjugate, UniProt P01012 2-386, looked up)
Ovalbumin: GSIGAASMEFCFDVFKELKVHHANENIFYCPIAIMSALAMVYLGAKDSTRTQINKVVRFDKLPGFGDSIEAQCGTSVNVHSSLRDILNQITKPNDVYSFSLASRLYAEERYPILPEYLQCVKELYRGGLEPINFQTAADQARELINSWVESQTNGIIRNVLQPSSVDSQTAMVLVNAIVFKGLWEKAFKDEDTQAMPFRVTEQESKPVQMMYQIGLFRVASMASEKMKILELPFASGTMSMLVLLPDEVSGLEQLESIINFEKLTEWTSSNVMEERKIKVYLPRMKMEEKYNLTSVLMAMGITDVFSSSANLSGISSAESLKISQAVHAAHAEINEAGREVVGSAEAGVDAASVSEEFRADHPFLFCIKHIATNAVLFFGRCVSP
modifications: qRAS label
- increase of emission intensity of TMR (fluorescence activation ratio): 30 fold

Source: patent US20210333263A1, “REDOX ACTIVATABLE FLUORESCENT SENSORS” (The Board of Regents of the University of Texas System, priority 2016, published 2021)
